Measured values from publication PMC4371837.
These are yes or no findings as the source states them, for the method shown. In cells and extracts the contact can be indirect. These calls come from enrichment with a bait or labelling near it, and not all partners need be listed. No binding means not detected with the bait.

Chains of the proteins cited; added tags and fusions are not shown.
UniProt Q8VIG1: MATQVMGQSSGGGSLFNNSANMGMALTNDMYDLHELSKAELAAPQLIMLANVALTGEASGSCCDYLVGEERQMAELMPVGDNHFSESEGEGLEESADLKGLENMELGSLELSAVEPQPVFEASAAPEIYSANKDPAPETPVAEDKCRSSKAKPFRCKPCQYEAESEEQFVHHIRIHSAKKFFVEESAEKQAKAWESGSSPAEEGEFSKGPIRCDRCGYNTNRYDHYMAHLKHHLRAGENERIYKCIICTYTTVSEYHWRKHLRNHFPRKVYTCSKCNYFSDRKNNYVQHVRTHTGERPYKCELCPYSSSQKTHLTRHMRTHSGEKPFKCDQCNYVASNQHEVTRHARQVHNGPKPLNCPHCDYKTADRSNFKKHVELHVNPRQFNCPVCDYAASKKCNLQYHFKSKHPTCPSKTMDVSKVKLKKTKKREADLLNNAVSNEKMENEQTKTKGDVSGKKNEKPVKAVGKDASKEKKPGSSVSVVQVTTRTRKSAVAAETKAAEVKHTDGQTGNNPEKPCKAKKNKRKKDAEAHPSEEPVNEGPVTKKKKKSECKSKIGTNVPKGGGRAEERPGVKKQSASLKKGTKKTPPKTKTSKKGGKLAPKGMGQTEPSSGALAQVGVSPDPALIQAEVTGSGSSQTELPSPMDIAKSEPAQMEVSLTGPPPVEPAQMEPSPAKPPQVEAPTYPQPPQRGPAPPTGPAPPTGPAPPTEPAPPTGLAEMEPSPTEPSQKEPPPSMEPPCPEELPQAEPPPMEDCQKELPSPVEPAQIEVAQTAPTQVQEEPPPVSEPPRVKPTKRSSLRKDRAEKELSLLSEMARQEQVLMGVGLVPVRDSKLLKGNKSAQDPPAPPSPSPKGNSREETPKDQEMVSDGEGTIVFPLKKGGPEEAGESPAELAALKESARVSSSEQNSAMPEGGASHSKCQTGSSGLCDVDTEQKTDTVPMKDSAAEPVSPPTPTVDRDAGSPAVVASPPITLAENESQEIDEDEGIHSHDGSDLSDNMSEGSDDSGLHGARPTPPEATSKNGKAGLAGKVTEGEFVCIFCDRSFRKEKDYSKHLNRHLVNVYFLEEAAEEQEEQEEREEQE
UniProt Q921E6: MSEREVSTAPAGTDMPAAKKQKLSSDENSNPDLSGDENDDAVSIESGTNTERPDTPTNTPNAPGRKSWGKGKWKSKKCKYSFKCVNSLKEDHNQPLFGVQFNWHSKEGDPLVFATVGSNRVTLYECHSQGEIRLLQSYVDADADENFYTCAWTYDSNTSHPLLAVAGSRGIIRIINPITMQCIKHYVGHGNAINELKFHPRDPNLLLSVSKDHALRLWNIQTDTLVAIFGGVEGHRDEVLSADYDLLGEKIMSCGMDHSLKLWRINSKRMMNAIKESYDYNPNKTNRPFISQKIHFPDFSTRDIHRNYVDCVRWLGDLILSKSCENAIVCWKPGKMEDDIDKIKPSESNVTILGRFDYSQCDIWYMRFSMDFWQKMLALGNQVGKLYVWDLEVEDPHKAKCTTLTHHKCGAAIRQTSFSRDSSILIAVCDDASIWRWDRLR
UniProt Q80U70: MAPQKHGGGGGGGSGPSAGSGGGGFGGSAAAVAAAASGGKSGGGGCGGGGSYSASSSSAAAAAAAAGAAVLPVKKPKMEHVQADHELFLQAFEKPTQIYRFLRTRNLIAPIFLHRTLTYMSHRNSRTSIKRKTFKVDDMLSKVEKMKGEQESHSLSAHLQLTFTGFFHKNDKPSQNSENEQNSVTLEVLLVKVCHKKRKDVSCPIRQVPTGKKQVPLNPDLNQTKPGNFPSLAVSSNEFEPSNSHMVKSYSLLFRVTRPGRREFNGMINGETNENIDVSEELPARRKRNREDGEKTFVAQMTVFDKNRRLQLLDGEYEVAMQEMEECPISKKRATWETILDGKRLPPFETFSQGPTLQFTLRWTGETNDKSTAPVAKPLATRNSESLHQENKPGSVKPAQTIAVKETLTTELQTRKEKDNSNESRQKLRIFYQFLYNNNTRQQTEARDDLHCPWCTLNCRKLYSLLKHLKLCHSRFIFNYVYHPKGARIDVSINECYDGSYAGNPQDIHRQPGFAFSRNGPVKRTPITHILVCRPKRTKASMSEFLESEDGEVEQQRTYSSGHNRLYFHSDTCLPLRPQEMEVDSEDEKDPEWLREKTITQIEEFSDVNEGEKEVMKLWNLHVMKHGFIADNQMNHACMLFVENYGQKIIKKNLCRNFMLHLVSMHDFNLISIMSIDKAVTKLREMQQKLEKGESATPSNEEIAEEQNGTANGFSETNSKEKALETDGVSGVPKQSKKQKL
UniProt P16381: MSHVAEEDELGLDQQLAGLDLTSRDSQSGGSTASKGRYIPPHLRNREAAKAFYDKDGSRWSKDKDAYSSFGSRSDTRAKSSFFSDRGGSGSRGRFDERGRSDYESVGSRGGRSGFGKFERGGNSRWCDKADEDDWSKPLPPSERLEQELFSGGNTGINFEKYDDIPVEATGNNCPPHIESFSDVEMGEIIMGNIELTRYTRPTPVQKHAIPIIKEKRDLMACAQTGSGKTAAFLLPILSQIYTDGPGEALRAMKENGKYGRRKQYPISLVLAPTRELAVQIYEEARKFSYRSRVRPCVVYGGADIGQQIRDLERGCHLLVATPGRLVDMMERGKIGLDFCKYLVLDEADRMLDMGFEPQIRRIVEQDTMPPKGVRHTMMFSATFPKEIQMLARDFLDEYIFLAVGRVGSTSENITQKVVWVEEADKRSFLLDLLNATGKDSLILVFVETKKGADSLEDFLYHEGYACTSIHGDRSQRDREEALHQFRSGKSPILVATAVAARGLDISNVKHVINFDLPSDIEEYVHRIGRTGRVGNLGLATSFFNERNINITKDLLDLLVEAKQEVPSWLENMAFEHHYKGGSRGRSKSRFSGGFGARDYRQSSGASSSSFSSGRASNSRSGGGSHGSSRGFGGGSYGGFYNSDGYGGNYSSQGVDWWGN
UniProt Q6NS46: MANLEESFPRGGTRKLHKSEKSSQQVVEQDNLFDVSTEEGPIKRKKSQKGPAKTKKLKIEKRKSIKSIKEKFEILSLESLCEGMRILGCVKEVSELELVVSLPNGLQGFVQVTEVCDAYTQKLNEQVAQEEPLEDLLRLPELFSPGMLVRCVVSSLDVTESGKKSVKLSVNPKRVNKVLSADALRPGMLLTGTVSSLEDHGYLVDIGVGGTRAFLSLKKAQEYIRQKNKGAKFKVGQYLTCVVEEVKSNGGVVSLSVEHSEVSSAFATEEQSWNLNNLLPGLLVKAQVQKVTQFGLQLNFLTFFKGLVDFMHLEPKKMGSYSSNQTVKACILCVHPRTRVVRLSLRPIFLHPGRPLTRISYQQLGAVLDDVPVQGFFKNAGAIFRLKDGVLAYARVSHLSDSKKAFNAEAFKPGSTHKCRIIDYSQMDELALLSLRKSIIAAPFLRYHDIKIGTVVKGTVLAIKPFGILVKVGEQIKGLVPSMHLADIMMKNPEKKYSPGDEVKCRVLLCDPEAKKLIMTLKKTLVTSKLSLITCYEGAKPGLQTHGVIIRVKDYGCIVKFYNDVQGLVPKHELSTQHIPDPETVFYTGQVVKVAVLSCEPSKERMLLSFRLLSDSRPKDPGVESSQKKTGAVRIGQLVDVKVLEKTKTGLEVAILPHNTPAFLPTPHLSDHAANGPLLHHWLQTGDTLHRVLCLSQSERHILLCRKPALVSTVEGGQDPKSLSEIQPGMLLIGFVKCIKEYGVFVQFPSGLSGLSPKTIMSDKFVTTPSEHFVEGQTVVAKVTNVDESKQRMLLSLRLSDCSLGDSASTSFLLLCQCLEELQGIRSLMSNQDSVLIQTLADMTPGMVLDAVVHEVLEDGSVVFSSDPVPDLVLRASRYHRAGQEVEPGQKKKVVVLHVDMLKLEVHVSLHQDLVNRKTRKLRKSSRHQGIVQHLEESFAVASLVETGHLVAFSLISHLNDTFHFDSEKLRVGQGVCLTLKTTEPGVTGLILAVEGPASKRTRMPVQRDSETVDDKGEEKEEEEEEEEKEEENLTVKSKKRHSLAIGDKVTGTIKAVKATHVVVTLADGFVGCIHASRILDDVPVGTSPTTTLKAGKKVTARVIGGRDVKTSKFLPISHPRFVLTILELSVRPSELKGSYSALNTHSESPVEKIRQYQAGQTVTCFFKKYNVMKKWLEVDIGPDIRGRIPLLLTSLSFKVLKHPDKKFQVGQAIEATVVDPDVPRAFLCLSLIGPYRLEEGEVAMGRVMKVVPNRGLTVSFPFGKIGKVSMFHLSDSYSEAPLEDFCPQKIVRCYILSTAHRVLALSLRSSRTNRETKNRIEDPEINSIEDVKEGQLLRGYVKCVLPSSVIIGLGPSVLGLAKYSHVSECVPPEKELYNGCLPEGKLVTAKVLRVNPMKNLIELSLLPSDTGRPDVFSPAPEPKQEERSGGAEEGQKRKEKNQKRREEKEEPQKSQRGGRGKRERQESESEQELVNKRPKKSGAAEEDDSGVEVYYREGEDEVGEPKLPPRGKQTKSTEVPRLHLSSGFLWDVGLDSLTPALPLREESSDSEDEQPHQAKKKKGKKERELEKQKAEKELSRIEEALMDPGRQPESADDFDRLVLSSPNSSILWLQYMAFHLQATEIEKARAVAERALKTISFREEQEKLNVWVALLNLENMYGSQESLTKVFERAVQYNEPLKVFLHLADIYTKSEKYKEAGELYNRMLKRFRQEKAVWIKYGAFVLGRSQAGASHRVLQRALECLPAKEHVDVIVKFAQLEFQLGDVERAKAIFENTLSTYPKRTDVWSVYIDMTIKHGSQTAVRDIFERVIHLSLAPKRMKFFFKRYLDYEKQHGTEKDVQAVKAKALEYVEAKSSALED
UniProt Q9D0D4: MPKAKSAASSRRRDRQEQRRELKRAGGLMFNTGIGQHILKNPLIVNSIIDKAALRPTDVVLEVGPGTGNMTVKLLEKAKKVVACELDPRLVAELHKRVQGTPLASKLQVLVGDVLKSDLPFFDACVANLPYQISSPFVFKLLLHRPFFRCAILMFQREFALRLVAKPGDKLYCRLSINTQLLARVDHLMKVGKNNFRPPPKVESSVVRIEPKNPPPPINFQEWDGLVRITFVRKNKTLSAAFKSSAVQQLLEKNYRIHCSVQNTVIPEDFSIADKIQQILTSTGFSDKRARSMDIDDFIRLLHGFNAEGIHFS
UniProt O09106: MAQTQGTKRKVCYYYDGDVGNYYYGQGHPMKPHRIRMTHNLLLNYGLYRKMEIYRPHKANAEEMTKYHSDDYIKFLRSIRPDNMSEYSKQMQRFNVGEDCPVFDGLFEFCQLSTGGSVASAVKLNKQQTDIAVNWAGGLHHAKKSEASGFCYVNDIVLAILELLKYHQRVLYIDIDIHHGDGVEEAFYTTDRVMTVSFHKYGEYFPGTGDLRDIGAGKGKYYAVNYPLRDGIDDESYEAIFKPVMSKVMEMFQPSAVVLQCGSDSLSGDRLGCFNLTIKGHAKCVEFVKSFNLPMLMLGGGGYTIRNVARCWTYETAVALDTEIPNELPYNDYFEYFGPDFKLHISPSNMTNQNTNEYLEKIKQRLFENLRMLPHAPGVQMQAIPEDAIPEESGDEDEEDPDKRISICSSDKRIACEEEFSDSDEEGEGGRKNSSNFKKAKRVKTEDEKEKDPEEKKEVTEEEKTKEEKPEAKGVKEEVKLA
UniProt Q08943: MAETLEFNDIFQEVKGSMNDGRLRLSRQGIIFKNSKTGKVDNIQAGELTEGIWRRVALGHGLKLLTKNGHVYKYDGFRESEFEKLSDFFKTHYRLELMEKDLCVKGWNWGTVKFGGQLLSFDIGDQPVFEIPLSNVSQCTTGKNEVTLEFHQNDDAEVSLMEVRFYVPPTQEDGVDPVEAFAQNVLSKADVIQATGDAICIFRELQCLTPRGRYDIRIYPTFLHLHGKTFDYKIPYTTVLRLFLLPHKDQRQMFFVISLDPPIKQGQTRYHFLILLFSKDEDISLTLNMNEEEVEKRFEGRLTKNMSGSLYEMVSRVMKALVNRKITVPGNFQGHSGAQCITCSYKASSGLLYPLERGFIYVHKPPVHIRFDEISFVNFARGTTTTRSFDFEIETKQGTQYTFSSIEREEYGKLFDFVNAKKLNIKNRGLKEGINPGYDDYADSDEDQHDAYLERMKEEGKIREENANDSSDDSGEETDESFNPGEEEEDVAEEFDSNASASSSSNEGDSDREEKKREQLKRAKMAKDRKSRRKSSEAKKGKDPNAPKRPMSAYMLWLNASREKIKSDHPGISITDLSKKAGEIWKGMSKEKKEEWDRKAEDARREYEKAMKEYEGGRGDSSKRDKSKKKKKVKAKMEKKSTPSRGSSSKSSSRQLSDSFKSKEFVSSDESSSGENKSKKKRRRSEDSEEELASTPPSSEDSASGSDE

What follows are substances tested against Flag-BioT-mREST (mouse REST tagged with a biotin acceptor sequence) (mouse) (UniProt Q8VIG1) (assay: affinity purification with mass spectrometry; streptavidin pull-downs of biotin-tagged REST from nuclear extracts of mouse ESCs; replicates; BirA control).

Row | binding | Substance
1 | no binding | Eed (from UniProt Q921E6 1-441)
2 | binds | Suz12 (from UniProt Q80U70 1-741)

What follows are substances tested against Flag-BioT-mREST (mouse REST tagged with a biotin acceptor sequence) (mouse) (UniProt Q8VIG1) (assay: affinity purification with mass spectrometry; biotin-tagged REST captured on streptavidin M-280 magnetic beads from cleared whole-cell lysate of mouse ESCs (clone #60), 4°C, 3 hr, 50 mM Tris-Cl pH 7.5, 150 mM NaCl, 0.5% Triton X-100, 0.5 mM EDTA, 10% glycerol; MudPIT on three independent purifications; parental BirA-J1 cells as control).

Row | Substance | binding
3 | Bclafi (from UniProt Q8K019 1-919) | binds
4 | D1Pas1 (from UniProt P16381 1-660) | binds
5 | Ehmt2/G9a (from UniProt Q9Z148 1-1263) (enzyme) | binds
6 | HDAC2 (from UniProt P70288 1-488) (enzyme) | binds
7 | Pdcd11 (from UniProt Q6NS46 1-1862) | binds
8 | Smarca5 (from UniProt Q91ZW3 1-1051) | binds
9 | Wiz (from UniProt O88286 1-1684) | binds

Results, then the substance that gave them:

Row | binding | Substance
10 | binds | Dimti (from UniProt Q9D0D4 1-313)
11 | binds | HDAC1 (from UniProt O09106 1-482) (enzyme)
12 | binds | Mdc1 (from UniProt Q5PSV9 1-1707)
13 | no binding | SMCX (Jarid1C) (from UniProt P41230 1-1554) (enzyme)
14 | binds | Ssrpi (from UniProt Q08943 1-708)
